Some of the results follow. Further columns of the screen follow, without active or inactive calls. Compounds called inactive in the main read-out are mostly missing here. Potencies come from curve fits of mixed quality, noted in brackets.

A short description of the assay: qHTS Assay for Lipid Storage Modulators in Drosophila S3 Cells.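 For cell number change: cells counted by Cell Tracker Red CMTPX staining in the red channel.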 The conditions noted are these: BODIPY lipid droplet fluorescence, 18-24 h; for cell number change: measured here: cell count max response, cells fed with added oleic acid. The method in brief: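 Drosophila S3 cells got compounds at several concentrations plus oleic acid (400 uM solution). Laser-scanning cytometry with 488 nm excitation read lipid droplets at 500-530 nm and cells at 575-640 nm. Percent activity was relative to 20 uM Triacsin C.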
For orientation: qHTS replaces the single test concentration by a dilution series.

The mark [1] stands for this setting: measured here: cell number channel AC50, cells fed with added oleic acid.
Where [2] appears, read: measured here: lipid fluorescence (Fed channel) AC50, cells fed with added oleic acid.

Turning to `COc1cccc(NC(=O)c2cccc(N3C(=O)C4C5C=CC(C5)C4C3=O)c2)c1` (stereo unspecified), the AC50 (usually the midpoint of the concentration-response curve, whichever way the signal moves) is, setting by setting: under setting [1], 0.82 µM [rising, partial curve, poor fit]; under setting [2], 4.11 µM [rising, single point].
With `COc1ccc(C)cc1S(=O)(=O)Nc1cccc(-c2ccc(N3CCCCCC3)nn2)c1`, the cell number change was determined as 26.6%. The AC50 under setting [2] was 20.6 µM [rising, partial curve].
For the molecule `COc1ccc(NC(=O)CN(C)C(=O)/C=C/c2cn(-c3ccccc3)nc2-c2ccc(C)cc2)cc1`, the cell number change came to 50%. Further, under setting [1], the AC50 is 6.51 µM [rising, single point].
As for `O=C(CCN1CCOCC1)c1ccc(Cl)cc1`, the cell number change is -58.7%. Moreover, the AC50 under setting [1] was 18.4 µM [falling, single point]. Besides, under setting [2], the AC50 is 16.4 µM [falling, partial curve].
Turning to `CCCSc1nnc2nc(C)cc(C)n12`, the cell number change came out at 12.2%. Further, under setting [2], the AC50 is 0.146 µM [falling, single point].
As to `Cc1cc2c(cc(C(=O)OCC(=O)NCc3ccco3)n2C)s1`, the cell number change is -33.8%. For the same molecule, the half-maximal activity concentration (AC50) under setting [1] was 4.61 µM [falling, full curve, poor fit].
Consider `CCCC(O)(c1ccc(Br)cc1)C(CN1CCOCC1)c1ccc(Cl)cc1` (stereo unspecified), for which the cell number change was -39.7%. Besides, under setting [1], the AC50 was 20.6 µM [falling, single point]. In addition, the AC50 under setting [2] is 29.1 µM [falling, single point].
As to `COc1ccccc1N(C)S(=O)(=O)c1ccc(C(=O)NCCc2ccc(F)cc2)cc1`, the cell number change worked out at 13.1%. Under setting [2], the AC50 was 29.1 µM [falling, single point].
On to `COc1ccc(-n2nc([N+](=O)[O-])c(=NCCc3cccc(C)c3)n2O)cc1`, for which the cell number change is -32.5%.
Turning to `O=C(c1ccc(OC2CCN(C/C=C/c3ccccc3)CC2)cc1)N1CCCCC1`, the cell number change turned out to be 36.4%. Also, the AC50 under setting [1] is 5.17 µM [rising, full curve, poor fit]. Moreover, the AC50 under setting [2] was 0.0731 µM [rising, full curve, poor fit].
With `O=C(COc1ccccc1)NNC(=O)c1cc2ccccc2o1`, the cell number change is 22.6%. Besides, the AC50 under setting [2] is 2.31 µM [falling, single point].
Turning to `Cc1ccnc(NC(=O)CNC(=O)c2sc3ccccc3c2Cl)c1`, the cell number change was -1.1%. Further, the AC50 under setting [2] was 29.1 µM [falling, single point].
Take `Cc1cc(C2(c3cc(C)c(NC(=O)CN4CCOCC4)c(C)c3)CCCCC2)cc(C)c1NC(=O)CN1CCOCC1`: the cell number change was -35.2%. The AC50 under setting [1] is 29.1 µM [falling, single point]. Also, the AC50 under setting [2] is 6.51 µM [falling, single point].
In the case of `COc1ccc(NC(=O)CN2C(=O)C(C)Oc3ccc(C)cc32)cc1` (stereo unspecified), the cell number change amounted to 3.69%. Besides, under setting [2], the AC50 was 29.1 µM [falling, single point].
Consider `CCS(=O)(=O)N1N=C(c2ccccc2)CC1c1ccc2nccnc2c1` (stereo unspecified), for which the cell number change turned out to be 25.6%. Moreover, the AC50 under setting [2] was 5.8 µM [rising, full curve, poor fit].
With `O=C(CSCc1cnn(-c2ccccc2)c1-n1cccc1)NCc1cccnc1`, the cell number change is 30.6%.
On to `Cc1ccc(C)c(-c2nnc(NC(=O)CCS(=O)(=O)c3ccccc3)o2)c1`, for which the AC50 by setting is: under setting [1], 6.51 µM [rising, partial curve, poor fit]; under setting [2], 0.651 µM [rising, partial curve, poor fit].
`Cc1ccc(Nc2nc3ccccc3nc2Nc2c(C)n(C)n(-c3ccccc3)c2=O)cc1`: the cell number change turned out to be 0.447%. Also, under setting [2], the AC50 is 0.146 µM [rising, full curve, poor fit].
In the case of `CN1CCC(N(C)C(=S)NCCc2ccccc2)CC1`, the cell number change was -36.4%. Moreover, the AC50 under setting [1] was 7.31 µM [falling, partial curve, poor fit].
As to `O=C(N/N=C/c1c[nH]c2ccccc12)c1ccccc1`, the cell number change was -15.7%. Besides, the AC50 under setting [2] was 6.51 µM [rising, single point].
As to `O=C(CN1CCCC1)NCC1(c2ccccc2)CCOCC1`, the cell number change was found to be 26.4%. Also, the AC50 under setting [1] is 3.26 µM [rising, single point]. Besides, under setting [2], the AC50 is 5.8 µM [rising, single point].
`CNC(C)c1ccc(S(N)(=O)=O)cc1` (stereo unspecified): the cell number change is -36.2%. The AC50 under setting [1] was 0.0291 µM [falling, partial curve, poor fit]. Further, under setting [2], the AC50 was 0.517 µM [falling, full curve].
As for `CC(C)(C)C(=O)Nc1nc(-c2ccc3c(c2)OCO3)cs1`, the AC50 under setting [2] was 0.731 µM [rising, partial curve, poor fit].
In the case of `C[C@H](NC(=O)c1nc[nH]c1C(=O)N[C@@H](Cc1ccccc1)C(=O)OCc1ccccc1)C(=O)OC(C)(C)C`, the cell number change worked out at 59%. Besides, the AC50 under setting [1] was 29.1 µM [rising, single point]. For the same molecule, the AC50 under setting [2] was 0.164 µM [falling, partial curve, poor fit].
With `Cc1ccccc1N(C(=O)c1snc(C(N)=O)c1N)C(C(=O)NCc1ccccc1)c1ccc(O)cc1` (stereo unspecified), the cell number change was -30.6%. Further, under setting [1], the AC50 is 23.1 µM [falling, single point].
`COc1ccccc1CCNC(=O)C(=O)NCC1OCCN1S(=O)(=O)c1ccc(Cl)cc1` (stereo unspecified): the cell number change worked out at 30.3%. Further, the AC50 under setting [1] was 1.16 µM [rising, full curve, poor fit]. Under setting [2], the AC50 was 14.6 µM [rising, single point].
Turning to `Cc1cc(C)c(C)c(C(=O)CSc2nnc(-c3ccc4[nH]c(C)c(C)c4c3)o2)c1C`, the cell number change is -75.5%. In addition, the AC50 under setting [1] was 11.6 µM [falling, partial curve]. Moreover, the AC50 under setting [2] was 13 µM [falling, partial curve].
For `CCOC(=O)c1cc(-c2ccccc2)n(Cc2cc(CC)no2)n1`, the AC50 under setting [2] is 5.17 µM [falling, partial curve, poor fit].
As for `O=C(NC1CCCC1)C(c1ccc(F)cc1)N(C(=O)c1csnn1)c1ccccc1` (stereo unspecified), the cell number change is -21.9%.
Still for that read-out and setting: in the case of `Cc1ccnc(SCc2nc3ccccc3s2)n1` it was 8.89%.
Consider `CC(=O)Nc1cccc(N(C)C)c1`, for which the cell number change is -5.66%.
As for `CC(=O)Nc1ccc(S(=O)(=O)N2CCN(CC(O)COc3ccc4ccccc4c3)CC2)cc1` (stereo unspecified), the cell number change was -12%. Under setting [2], the half-maximal activity concentration (AC50) is 2.59 µM [rising, single point].
Take `COc1cc(NC(=O)CSc2nc(=O)n(CCN3CCOCC3)c3c2CCC3)cc(OC)c1`: the AC50 under setting [1] was 0.206 µM [rising, partial curve].
As for `COc1cc(OC)cc(C(=O)Nc2ccc3c(c2)COC3=O)c1`, the cell number change was -3.44%. The AC50 under setting [2] was 0.651 µM [falling, single point].
In the case of `COc1cc2c(cc1NC(=O)Cn1cnc3c1c(=O)n(C)c(=O)n3C)oc1ccccc12`, the cell number change is 17.2%. Moreover, under setting [2], the AC50 was 1.46 µM [rising, full curve].
On to `CCOc1ccccc1/C=N/NC(=O)CNC(=O)c1ccc(S(=O)(=O)N2CCOCC2)cc1`, for which the cell number change was determined as 15%. Besides, the AC50 under setting [1] is 1.64 µM [falling, single point].
Take `COc1ccc2c(c1)[nH]c1c(Cl)ncnc12`: the cell number change is -12%. Further, the half-maximal activity concentration (AC50) under setting [2] is 0.461 µM [falling, partial curve, poor fit].
As to `CCCOc1ccc(OCCOCCNCc2ccccc2)cc1`, the cell number change was determined as 19%. For the same molecule, the AC50 under setting [2] was 16.4 µM [rising, single point].
With `Cn1c(=O)c2sccc2n2c(CCCC(=O)NCc3ccc(F)cc3)nnc12`, the cell number change stood at 4.76%. The AC50 under setting [2] was 29.1 µM [falling, single point].
In the case of `CCCS(=O)(=O)N1CCC(C(=O)NCCCN2CCCC2=O)CC1`, the cell number change is -4.61%.
As to `COC(=O)[C@H](CC(C)C)NC(=O)N1CCCCC1`, the cell number change is -10.5%. The AC50 under setting [2] was 29.1 µM [falling, single point].
Turning to `COc1ccc(NC(=O)CN2CCOCC2)cc1S(=O)(=O)N1CCCCC1`, the cell number change is 9.56%. Also, the AC50 under setting [2] is 1.16 µM [rising, full curve].
`Clc1cccc(C2=NOC(c3nnc(-c4ccccc4)o3)C2)c1` (stereo unspecified): the cell number change was 32.7%. Besides, the AC50 under setting [1] is 0.0651 µM [rising, full curve, poor fit]. In addition, the half-maximal activity concentration (AC50) under setting [2] was 20.6 µM [rising, partial curve, poor fit].
Turning to `Cc1nn(C)cc1/C=N/NC(=O)Cn1cncn1`, the cell number change is -20.6%.
On to `O=C(NCc1ccc2c(c1)OCO2)C(=O)Nc1cc2c3c(c1)CC(=O)N3CCC2`, for which the cell number change worked out at 43.8%. For the same molecule, the half-maximal activity concentration (AC50) under setting [1] was 5.8 µM [rising, partial curve].
Regarding `O=C(CC1(O)C(=O)N(Cc2ccccc2)c2ccccc21)c1ccc2c(c1)OCO2` (stereo unspecified), the cell number change came to 126%. Further, the AC50 under setting [1] was 2.06 µM [rising, partial curve].
As to `CN(CCCNC(=O)CN1C(=O)CC(C)(C)S(=O)(=O)c2ccccc21)C1CCCCC1`, the cell number change was 33.1%. Besides, the AC50 under setting [1] is 32.6 µM [rising, single point]. In addition, the AC50 under setting [2] is 6.51 µM [rising, single point].
`O=c1[nH]c(-c2cccs2)nc2ccccc12`: the cell number change was -15.4%. Also, the AC50 under setting [1] is 0.116 µM [falling, full curve]. Further, the AC50 under setting [2] is 0.366 µM [falling, full curve, poor fit].
As for `CCC(C)(C)C(=O)Nc1cccc(Cl)c1C`, the cell number change was 34.6%.
In the case of `COc1cccc(NC(=O)CCN2CCN(c3ccccc3F)CC2)c1`, the cell number change is 53.3%. Moreover, the AC50 under setting [1] was 11.6 µM [rising, partial curve]. Also, under setting [2], the AC50 was 6.51 µM [rising, single point].
For `Cc1nc2ccccc2c(=O)n1/N=C/c1c(O)ccc2oc3c(c12)CCCC3`, the cell number change is 12.4%. In addition, the AC50 under setting [2] was 0.0206 µM [rising, full curve, poor fit].
Turning to `Cc1nc(C)c(-c2csc(Nc3ccc(C(=O)O)c(O)c3)n2)s1`, the cell number change was -25.5%. In addition, the AC50 under setting [2] was 6.51 µM [rising, single point].
Regarding `COc1cccc(-c2ncc3ccccc3c2CO)c1`, the cell number change is -57.9%. The AC50 under setting [1] was 9.2 µM [falling, single point]. Further, the AC50 under setting [2] was 10.3 µM [falling, single point].
Regarding `COc1ccccc1N(C(=O)CNC(=O)c1ccco1)C(C(=O)NC1CCCC1)c1ccco1` (stereo unspecified), the cell number change turned out to be 9.58%. For the same molecule, the AC50 under setting [2] was 1.46 µM [rising, partial curve].
As to `CCOC1(OCC)N=C(N)C2(C#N)C(c3cccc(OC)c3OC)C12C#N` (stereo unspecified), the cell number change was -25.3%. Besides, the AC50 under setting [2] is 29.1 µM [falling, single point].
Regarding `COCCN1C(=O)C(=O)/C(=C(/O)c2ccc(OC(C)C)cc2)C1c1cccnc1` (stereo unspecified), the cell number change was -95.8%. Besides, the AC50 under setting [1] is 29.1 µM [falling, partial curve]. The AC50 under setting [2] is 20.6 µM [falling, partial curve].

These data come from PubChem BioAssay AID2685 (National Center for Advancing Translational Sciences (NCATS), 2010).
